Test results published in paper PMC7819943, “Rice protein-binding microarrays: a tool to detect cis-acting elements near promoter regions in rice”.
Some of the results follow.

target: T1, OsSMF1 (Oryza sativa, UniProt Q6ZLB0 1-436); assay: protein-binding microarray (RPBM); PBS, 2% BSA, 51.3 ng/ul salmon testes DNA, 50 uM zinc acetate, 200 nM TF, 25 C, 1 h; high values mean tight binding; details: protein: recombinant; tags: N-terminal polyhistidine and DsRed monomer fusion (pET32a); chain copies: 2; label: CyDye5-dUTP incorporated in the synthesized complementary strand; 3' TTTTT single-stranded linker to array surface; dsDNA, one strand shown
T1 sequence: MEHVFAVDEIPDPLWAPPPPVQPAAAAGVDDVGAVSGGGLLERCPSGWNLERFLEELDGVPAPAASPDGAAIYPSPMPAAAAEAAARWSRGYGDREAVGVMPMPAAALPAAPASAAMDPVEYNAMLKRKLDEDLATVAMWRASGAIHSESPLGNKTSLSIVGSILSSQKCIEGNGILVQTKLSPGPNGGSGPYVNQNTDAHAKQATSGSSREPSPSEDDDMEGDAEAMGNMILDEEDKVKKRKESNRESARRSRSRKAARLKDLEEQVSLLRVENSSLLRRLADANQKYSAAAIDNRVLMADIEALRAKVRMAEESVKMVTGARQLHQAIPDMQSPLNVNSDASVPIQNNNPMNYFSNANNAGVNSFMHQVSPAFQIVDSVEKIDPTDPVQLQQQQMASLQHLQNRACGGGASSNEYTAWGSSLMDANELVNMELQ
How it was run: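 A custom Agilent array was converted to double-stranded form by primer extension with Cy5-dUTP and blocked with 2% BSA. Protein at 200 nM in PBS with 2% BSA, salmon testes DNA and 50 µM zinc acetate was applied for 1 h at 25 °C, followed by washing. The proteins were polyhistidine–DsRed N-terminal fusions of transcription factors, expressed in E. coli BL21-CodonPlus and Ni–NTA-purified. The binding signal is per-feature fluorescence intensity (arbitrary units) from an Axon 4000B scanner.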

Row | Sequence | binding signal
1 | GCCTCGTGGTGACGTAACCGTTGACACGTAGGCGGCGGCTCGGAGTCACCTAGTGCAG | 33500 fluorescence intensity (a.u.)
2 | TAGATGGGCCTGAAAGTTGTTGTGTGGCCTGAAAGTTGCGCGGAGTCACCTAGTGCAG | 3140 fluorescence intensity (a.u.)
3 | TAGGAGAAAATCATGACTCATTTGCAGCAGATCATGCCTCCGGAGTCACCTAGTGCAG | 7570 fluorescence intensity (a.u.)
4 | CCGTCCAACTTGAATCCAACGCCTAGATCTCCACTCCCACCGGAGTCACCTAGTGCAG | 23100 fluorescence intensity (a.u.)
5 | GAAGAGGGGAGTAGTGAGGATGACAGGTGGGGCCACGTGGCGGAGTCACCTAGTGCAG | 14300 fluorescence intensity (a.u.)
6 | TCCCGCTTTGACCCGCCTCCGTGTCACTCACTCCCGCCCGCGGAGTCACCTAGTGCAG | 9370 fluorescence intensity (a.u.)
7 | CCAGAACGCCACCCCGGCCGCGCGCCGCGCACGTCACTCGCGGAGTCACCTAGTGCAG | 7300 fluorescence intensity (a.u.)
8 | ATCCGATGTGACACGCCAAAATTTTACAAAACTACGTCTACGGAGTCACCTAGTGCAG | 3140 fluorescence intensity (a.u.)
9 | CGTGTTCTCGTCGTTGCTGGCATTCGACGTGTCAACGTGGCGGAGTCACCTAGTGCAG | 6530 fluorescence intensity (a.u.)
10 | GGCGACGCCATCTGCTTCACCTCCGGCAACTTGCTACCACCGGAGTCACCTAGTGCAG | 32800 fluorescence intensity (a.u.)
11 | CTCACACTACACCCACTCATCCACAGCGATCAACCGCATTCGGAGTCACCTAGTGCAG | 3210 fluorescence intensity (a.u.)
12 | TCTCTCCCTGGAGGCATGACGCGGCGGCGCCCGTGGCCGTCGGAGTCACCTAGTGCAG | 10100 fluorescence intensity (a.u.)
13 | CTCAACTTGTCATCGAGTTACAAAATCATCCTCGAACTGCCGGAGTCACCTAGTGCAG | 3260 fluorescence intensity (a.u.)
14 | AAGTCACCACAATGACACAATGCCACCACAGCAAAGTCCTCGGAGTCACCTAGTGCAG | 6580 fluorescence intensity (a.u.)
15 | CATGCCAATCGCGAAGCCCTACAAGCCGGGTTGTCATATGCGGAGTCACCTAGTGCAG | 31600 fluorescence intensity (a.u.)
16 | CCCCATCTTCCGGCTGATGAATGCAGATGTCATCTCATCTCGGAGTCACCTAGTGCAG | 4190 fluorescence intensity (a.u.)
17 | GGGAGGTGTGGTGATCGATCGCCATGCGCGGATTTTCTAACGGAGTCACCTAGTGCAG | 5590 fluorescence intensity (a.u.)
18 | GCTCCCTCAGCCGTGGCACGTGTTCACAAGCCGTGACCAGCGGAGTCACCTAGTGCAG | 4570 fluorescence intensity (a.u.)
19 | GCGTACTGCGTGCGTGCGCTTCATTTCGTTTCGTTGGGCCCGGAGTCACCTAGTGCAG | 3300 fluorescence intensity (a.u.)
20 | CACCTCCACGTCCATCTCTCTCTCTCTCTCCTCTCTCCTCCGGAGTCACCTAGTGCAG | 5010 fluorescence intensity (a.u.)
21 | ACGGCCTCCTCCCCTCTCCATCGATCGAGCGAGACGCTCCCGGAGTCACCTAGTGCAG | 3250 fluorescence intensity (a.u.)

Row | Sequence | binding signal
22 | AGTTGCTTTCAGAGGTGAAGATTTGTCATGTTGTAAGATGCGGAGTCACCTAGTGCAG | 3420 fluorescence intensity (a.u.)
23 | AGGCGCGGTTAGCCGGAGAGGTCTCTTCGTCGTATCCATTCGGAGTCACCTAGTGCAG | 21600 fluorescence intensity (a.u.)
24 | GTGGGCCCGGTCAAAGCGACACGGACACGTGCCGGTGAGGCGGAGTCACCTAGTGCAG | 6710 fluorescence intensity (a.u.)
25 | ATGCGATTCGAGGGCGAATGGGGATGACGCACGAAGCCCCCGGAGTCACCTAGTGCAG | 4860 fluorescence intensity (a.u.)
26 | ATATATTTTCTTAAGTCTAATGCCACATAAGCGTCACATCCGGAGTCACCTAGTGCAG | 10900 fluorescence intensity (a.u.)
27 | TGGGCCCACCCCTCCACTCGCCCTCCTCTTCCCGCCACGTCGGAGTCACCTAGTGCAG | 6190 fluorescence intensity (a.u.)
28 | GCCGCCCGGAGGTGGGGCCCACCTCGTCAGTGTCAGTGTGCGGAGTCACCTAGTGCAG | 3940 fluorescence intensity (a.u.)
29 | CTTCTCTATGCTCGCATCTAGCTCGCAGCTCCGTCCATCTCGGAGTCACCTAGTGCAG | 3620 fluorescence intensity (a.u.)
30 | TCTCTCCACTCTTCTTTCCTCCACTTCAGCATTTAGCCGGCGGAGTCACCTAGTGCAG | 3140 fluorescence intensity (a.u.)
31 | ATCCACGAGGGCAAGCAAGCAAGCAAGCTCCACCTCTCTGCGGAGTCACCTAGTGCAG | 3220 fluorescence intensity (a.u.)
32 | ATGGACGCCAGAGTTTACATGGCATTGGATGCTTATTAAACGGAGTCACCTAGTGCAG | 27300 fluorescence intensity (a.u.)
33 | GTGTAGAATTTATATGTTGATAGGGTAGTTAGAAGAAAATCGGAGTCACCTAGTGCAG | 15700 fluorescence intensity (a.u.)
34 | GTCAATTTTCTCATATAACTTGTTTGAATTACGTTAGATACGGAGTCACCTAGTGCAG | 15600 fluorescence intensity (a.u.)
35 | AGCATGTTGAGTATCAAACATAAGATCTCAGGTTAAAACCCGGAGTCACCTAGTGCAG | 3420 fluorescence intensity (a.u.)
36 | TGTAATTGGCTGAGAGACCGTAACAACGTGACATGGCTCACGGAGTCACCTAGTGCAG | 5860 fluorescence intensity (a.u.)
37 | TGAGGTCCACATATACTCAGACACGCTAATCAAACCACCCCGGAGTCACCTAGTGCAG | 3140 fluorescence intensity (a.u.)
38 | GAGAGTTATATATATATATATATATATATGGGGTTTTGCGCGGAGTCACCTAGTGCAG | 3740 fluorescence intensity (a.u.)
39 | GGAGAATTCTGCAAAATTATCATCGTCCCCACCGTAGCGCCGGAGTCACCTAGTGCAG | 3550 fluorescence intensity (a.u.)
40 | TAGCTCAATGACTCGATCCAACTCTGTAAACCGTTGAGAGCGGAGTCACCTAGTGCAG | 4230 fluorescence intensity (a.u.)
41 | GGATCCCATTAACACGTGTCACCGTGGCATGCCACGTCATCGGAGTCACCTAGTGCAG | 51400 fluorescence intensity (a.u.)
42 | CTCCTGTATAACACAGCTGTCCAGTCAAACACCCAAGCTGCGGAGTCACCTAGTGCAG | 3460 fluorescence intensity (a.u.)

Two entries drawn at random from those above:
Row | Sequence | binding signal
30 | TCTCTCCACTCTTCTTTCCTCCACTTCAGCATTTAGCCGGCGGAGTCACCTAGTGCAG | 3140 fluorescence intensity (a.u.)
35 | AGCATGTTGAGTATCAAACATAAGATCTCAGGTTAAAACCCGGAGTCACCTAGTGCAG | 3420 fluorescence intensity (a.u.)
